{
  "sequences": {"note": "Chains of the proteins cited; added tags and fusions are not shown. Lines headed by an entry give the natural chain unless they say otherwise; changes in a name come on top.", "UniProt P0A6X3": "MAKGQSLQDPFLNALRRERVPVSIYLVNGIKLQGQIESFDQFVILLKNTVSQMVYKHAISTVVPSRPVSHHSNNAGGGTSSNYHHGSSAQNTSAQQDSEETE"},
  "source": "paper PMC2946933",
  "target": "Hfq wild type (Escherichia coli?) (UniProt P0A6X3)",
  "assay": "SHAPE footprinting",
  "details": "1 uM Hfq, regions R1, R2, R3; Tb footprinting: 50 mM Tris-HCl pH 8.0, 100 mM NaCl, 10 mM MgCl2; recombinant protein; probe letters rebuilt from the primers and the genome",
  "note": "For at least one entry, the source does not settle the construct or the ends of the probe.",
  "data": [
    {"sequence": "GGCCUUCGGGCCAAGCAGCGUUACAUUCCCAUCCACUGGGGAAAGACGCGGCGCUGAUUGGUGAAGUGGUGGAACGUAAAGGUGUUCGUCUUGCCGGUCUGUAUGGCGUGAAACGAACCCUCGAUUUACCACACGCCGAACCGCUUCCGCGUAUAUGCUAAUAAAAUUCUAAAUCUCCUAUAGUUAGUCAAUGACCUUUUGCACCGCUUUGCGGUGCUUUCCUGGAAGAACAAAAUGUCAUAUACACCGAUGAGUGAUCUCGGACAACAAGGGUUGUUCGACAUCACUCGGACAUCGAUCCGGUUCGCCGGAUCCAAAUCGGGCUUCGGUCCGGUUCAAUAUUGGAUCCGCUCGG [fhlA220 mRNA with SHAPE structure cassette]", "values": [
      {"measurement": "binding result", "value": "binds"}
    ]}
  ]
}
